These results are taken from the supplement of paper PMC10849652.

Chains of the proteins cited; added tags and fusions are not shown. Lines headed by an entry give the natural chain unless they say otherwise; changes in a name come on top.
UniProt Q96PY5, whole entry, looked up: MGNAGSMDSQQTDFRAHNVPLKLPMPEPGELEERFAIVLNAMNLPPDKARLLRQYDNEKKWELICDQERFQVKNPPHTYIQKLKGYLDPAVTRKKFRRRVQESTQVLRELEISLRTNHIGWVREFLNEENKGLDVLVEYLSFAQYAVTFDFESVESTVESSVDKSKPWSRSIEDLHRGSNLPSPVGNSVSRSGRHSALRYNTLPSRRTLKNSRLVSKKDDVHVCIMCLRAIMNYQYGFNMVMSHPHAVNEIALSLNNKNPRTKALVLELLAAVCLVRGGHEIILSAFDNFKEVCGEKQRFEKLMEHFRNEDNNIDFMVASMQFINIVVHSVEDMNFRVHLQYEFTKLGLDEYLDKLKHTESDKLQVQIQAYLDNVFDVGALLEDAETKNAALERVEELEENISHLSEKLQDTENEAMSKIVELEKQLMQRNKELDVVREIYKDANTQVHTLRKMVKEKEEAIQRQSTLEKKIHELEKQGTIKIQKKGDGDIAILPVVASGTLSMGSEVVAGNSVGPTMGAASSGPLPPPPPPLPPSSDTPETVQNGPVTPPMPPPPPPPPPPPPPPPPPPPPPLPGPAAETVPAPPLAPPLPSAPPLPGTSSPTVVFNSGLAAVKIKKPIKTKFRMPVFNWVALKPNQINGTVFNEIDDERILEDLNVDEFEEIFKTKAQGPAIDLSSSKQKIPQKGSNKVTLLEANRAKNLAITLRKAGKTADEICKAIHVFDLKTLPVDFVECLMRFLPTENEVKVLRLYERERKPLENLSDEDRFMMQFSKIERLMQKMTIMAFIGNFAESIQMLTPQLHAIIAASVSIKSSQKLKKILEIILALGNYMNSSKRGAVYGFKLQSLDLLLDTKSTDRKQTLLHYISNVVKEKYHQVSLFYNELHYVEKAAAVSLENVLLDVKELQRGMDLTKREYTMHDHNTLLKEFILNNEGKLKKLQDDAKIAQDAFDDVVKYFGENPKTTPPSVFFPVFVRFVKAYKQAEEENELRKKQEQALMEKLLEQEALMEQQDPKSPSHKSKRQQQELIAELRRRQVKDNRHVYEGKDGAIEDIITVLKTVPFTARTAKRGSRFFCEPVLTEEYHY
UniProt Q6PJ61: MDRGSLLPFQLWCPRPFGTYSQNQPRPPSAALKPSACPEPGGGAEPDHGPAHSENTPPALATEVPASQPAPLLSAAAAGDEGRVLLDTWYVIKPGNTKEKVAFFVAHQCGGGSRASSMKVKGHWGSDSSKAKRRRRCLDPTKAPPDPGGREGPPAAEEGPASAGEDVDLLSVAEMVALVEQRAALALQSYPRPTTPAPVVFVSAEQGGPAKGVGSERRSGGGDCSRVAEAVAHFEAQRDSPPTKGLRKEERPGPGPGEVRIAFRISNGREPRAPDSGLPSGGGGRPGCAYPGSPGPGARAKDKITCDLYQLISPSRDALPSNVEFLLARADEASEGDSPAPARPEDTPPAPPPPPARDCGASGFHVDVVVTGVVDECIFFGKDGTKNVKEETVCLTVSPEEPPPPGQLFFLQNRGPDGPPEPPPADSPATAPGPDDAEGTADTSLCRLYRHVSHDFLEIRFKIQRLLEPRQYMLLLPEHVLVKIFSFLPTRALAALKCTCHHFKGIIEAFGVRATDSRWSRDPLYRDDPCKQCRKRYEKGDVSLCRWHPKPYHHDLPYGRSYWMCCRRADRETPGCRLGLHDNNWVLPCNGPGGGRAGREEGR
UniProt Q9NVK5: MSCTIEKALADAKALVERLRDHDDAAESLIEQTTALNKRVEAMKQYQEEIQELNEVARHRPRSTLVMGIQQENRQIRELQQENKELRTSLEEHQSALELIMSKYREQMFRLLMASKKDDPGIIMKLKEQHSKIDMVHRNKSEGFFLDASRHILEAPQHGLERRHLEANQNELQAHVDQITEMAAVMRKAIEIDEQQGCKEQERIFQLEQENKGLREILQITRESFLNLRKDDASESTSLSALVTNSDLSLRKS
UniProt Q9UKT8: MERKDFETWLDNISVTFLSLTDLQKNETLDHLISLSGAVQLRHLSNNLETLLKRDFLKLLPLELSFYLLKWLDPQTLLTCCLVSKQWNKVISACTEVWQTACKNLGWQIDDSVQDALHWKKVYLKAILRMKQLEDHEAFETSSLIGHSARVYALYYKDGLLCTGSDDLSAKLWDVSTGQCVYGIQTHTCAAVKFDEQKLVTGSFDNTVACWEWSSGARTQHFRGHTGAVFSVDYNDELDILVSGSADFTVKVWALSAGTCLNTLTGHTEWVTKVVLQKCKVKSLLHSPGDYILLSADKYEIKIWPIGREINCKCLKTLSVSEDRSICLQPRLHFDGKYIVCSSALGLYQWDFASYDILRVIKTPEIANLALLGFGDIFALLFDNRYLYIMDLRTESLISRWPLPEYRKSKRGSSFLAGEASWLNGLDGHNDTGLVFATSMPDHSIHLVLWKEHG
UniProt Q9Y2H6: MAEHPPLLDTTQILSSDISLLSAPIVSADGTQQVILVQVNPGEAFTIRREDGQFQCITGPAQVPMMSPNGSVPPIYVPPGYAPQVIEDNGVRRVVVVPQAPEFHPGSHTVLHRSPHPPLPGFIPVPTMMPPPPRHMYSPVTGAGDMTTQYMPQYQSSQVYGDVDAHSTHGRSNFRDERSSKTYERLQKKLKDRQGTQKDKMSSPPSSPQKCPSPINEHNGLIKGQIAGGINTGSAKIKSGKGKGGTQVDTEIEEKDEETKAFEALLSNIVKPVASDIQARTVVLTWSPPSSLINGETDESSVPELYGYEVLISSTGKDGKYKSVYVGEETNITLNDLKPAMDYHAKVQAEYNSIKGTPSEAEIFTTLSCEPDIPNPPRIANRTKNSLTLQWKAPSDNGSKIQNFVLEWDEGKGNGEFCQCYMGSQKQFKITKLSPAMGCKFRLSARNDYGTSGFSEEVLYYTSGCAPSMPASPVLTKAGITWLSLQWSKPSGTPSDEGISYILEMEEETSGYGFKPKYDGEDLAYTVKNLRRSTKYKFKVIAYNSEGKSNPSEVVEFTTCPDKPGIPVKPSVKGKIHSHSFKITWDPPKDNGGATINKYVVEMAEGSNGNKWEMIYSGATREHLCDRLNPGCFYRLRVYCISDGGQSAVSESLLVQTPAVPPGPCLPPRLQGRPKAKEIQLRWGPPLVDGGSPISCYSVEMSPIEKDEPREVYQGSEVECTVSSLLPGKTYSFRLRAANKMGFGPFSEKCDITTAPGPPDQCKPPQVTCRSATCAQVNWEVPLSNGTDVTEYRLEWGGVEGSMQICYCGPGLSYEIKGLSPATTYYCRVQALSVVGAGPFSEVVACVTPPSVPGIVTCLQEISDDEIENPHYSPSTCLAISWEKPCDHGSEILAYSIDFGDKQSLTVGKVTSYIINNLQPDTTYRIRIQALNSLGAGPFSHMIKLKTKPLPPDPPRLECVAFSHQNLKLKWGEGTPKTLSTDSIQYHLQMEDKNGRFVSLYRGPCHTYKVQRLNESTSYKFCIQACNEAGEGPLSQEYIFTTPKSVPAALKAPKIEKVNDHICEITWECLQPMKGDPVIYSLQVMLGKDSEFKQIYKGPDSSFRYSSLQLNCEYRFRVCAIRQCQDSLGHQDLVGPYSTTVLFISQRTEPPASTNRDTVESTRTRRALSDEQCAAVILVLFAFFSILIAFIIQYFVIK
UniProt Q92913: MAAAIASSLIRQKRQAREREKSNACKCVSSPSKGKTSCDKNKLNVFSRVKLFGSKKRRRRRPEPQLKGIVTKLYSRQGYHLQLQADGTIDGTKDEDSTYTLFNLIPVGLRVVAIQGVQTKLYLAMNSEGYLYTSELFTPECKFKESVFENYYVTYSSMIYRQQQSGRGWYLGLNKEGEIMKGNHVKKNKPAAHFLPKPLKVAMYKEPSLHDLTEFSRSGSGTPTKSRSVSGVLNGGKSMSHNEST
UniProt Q96IV6: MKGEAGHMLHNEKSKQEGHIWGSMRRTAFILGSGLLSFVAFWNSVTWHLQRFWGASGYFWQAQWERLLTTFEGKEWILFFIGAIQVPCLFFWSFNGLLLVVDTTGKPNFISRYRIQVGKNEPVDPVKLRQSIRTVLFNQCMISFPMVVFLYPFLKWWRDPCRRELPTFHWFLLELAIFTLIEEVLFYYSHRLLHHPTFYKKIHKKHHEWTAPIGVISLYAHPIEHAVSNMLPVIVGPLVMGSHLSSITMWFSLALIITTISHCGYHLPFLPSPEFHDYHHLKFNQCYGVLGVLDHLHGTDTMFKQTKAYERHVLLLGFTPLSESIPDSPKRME
UniProt Q9P0K8: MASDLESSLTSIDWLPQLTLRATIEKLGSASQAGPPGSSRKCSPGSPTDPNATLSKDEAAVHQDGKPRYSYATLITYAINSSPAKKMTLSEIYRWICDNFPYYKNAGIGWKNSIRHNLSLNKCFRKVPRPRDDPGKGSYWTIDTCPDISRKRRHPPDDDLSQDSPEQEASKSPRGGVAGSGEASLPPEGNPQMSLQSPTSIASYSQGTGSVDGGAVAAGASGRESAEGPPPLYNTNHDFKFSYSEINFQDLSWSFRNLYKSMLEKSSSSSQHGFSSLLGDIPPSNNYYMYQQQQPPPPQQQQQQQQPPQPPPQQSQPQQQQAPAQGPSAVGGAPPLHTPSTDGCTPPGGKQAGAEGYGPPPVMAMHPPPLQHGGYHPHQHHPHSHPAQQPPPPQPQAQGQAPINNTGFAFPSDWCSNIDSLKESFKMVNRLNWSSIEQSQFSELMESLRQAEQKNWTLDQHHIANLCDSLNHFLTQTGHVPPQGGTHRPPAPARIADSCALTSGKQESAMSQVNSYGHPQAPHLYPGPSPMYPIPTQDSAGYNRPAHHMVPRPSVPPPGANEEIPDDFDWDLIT
UniProt Q00597: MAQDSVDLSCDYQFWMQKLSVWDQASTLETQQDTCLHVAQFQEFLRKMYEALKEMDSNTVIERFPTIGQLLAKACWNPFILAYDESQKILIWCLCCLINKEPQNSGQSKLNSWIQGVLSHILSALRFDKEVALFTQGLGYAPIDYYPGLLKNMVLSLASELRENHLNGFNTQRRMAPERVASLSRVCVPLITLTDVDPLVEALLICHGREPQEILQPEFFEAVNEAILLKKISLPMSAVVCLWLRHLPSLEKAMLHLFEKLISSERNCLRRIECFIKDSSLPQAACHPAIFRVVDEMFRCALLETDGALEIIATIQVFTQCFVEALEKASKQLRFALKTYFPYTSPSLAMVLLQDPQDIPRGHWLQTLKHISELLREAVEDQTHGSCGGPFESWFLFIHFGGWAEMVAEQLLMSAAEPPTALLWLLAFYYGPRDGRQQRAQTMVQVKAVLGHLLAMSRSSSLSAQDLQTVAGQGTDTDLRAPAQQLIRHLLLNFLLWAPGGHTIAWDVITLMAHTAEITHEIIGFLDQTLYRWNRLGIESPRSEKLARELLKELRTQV
UniProt Q9Y4F1: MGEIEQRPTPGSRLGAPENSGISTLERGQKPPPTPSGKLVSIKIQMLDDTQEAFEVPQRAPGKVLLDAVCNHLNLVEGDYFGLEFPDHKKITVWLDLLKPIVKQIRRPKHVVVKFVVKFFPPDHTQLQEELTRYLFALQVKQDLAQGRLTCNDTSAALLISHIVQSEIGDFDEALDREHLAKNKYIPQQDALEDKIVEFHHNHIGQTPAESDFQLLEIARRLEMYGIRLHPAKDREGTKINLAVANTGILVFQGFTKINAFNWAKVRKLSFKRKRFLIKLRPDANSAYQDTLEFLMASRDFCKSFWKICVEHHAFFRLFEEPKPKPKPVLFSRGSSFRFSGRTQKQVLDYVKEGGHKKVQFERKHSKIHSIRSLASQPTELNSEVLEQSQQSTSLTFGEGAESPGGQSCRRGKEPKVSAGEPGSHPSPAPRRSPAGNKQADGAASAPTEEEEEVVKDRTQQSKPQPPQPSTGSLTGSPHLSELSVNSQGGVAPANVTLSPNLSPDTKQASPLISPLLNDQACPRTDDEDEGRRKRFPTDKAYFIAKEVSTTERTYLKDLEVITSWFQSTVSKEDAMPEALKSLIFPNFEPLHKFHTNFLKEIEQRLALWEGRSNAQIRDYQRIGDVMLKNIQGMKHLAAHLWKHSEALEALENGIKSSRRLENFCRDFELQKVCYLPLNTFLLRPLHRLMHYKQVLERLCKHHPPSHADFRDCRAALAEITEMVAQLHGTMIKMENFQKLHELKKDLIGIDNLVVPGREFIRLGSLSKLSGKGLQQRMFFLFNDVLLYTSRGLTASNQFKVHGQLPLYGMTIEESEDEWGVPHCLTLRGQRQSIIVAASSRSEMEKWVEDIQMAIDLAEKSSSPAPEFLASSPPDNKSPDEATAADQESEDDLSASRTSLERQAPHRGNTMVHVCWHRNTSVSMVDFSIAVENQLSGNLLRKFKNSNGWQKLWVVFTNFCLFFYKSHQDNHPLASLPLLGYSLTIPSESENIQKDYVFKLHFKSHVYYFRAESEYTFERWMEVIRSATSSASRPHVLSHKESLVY

This is one part of the list.

Holding throughout (test): log2 fold change, soluble protein after heating vs DMSO (PISA); higher = thermal stabilisation; K562 lysate, 10 uM; active = over 0.2 and 3.5 SD of the protein, either way, in both replicates (recomputed)
Compound in one assay: O=C(CCCCCCC(=O)Nc1ccccc1)NO [vorinostat]
The gist of the method:
(§1)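 The values are log-two fold changes in thermal stability compared with solvent controls and come from duplicates. They were obtained by TMTpro 16plex LC-MS/MS, with channel sums equalised, on the supernatant after 21,000xg for 90 min. That supernatant came from crude K562 extract at 1 mg/mL protein treated with 10 μM compound for 30 min, heated for 3 min across 48°C-58°C, pooled and brought to 0.5% NP-40 at 4°C.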

Compound in the next assay: O=C(O)c1ccc2c(c1)nc(Nc1cccc(Cl)c1)c1ccncc12 [silmitasertib]
The method in brief:
as §1

Compound in assay [1]: O=C1NC(=O)C(c2cnc3ccccn23)=C1c1cn2c3c(cc(F)cc13)CN(C(=O)N1CCCCC1)CC2
The method in brief:
as §1

Compound in assay [2]: NCC(=O)Nc1ccc(-n2nc(C(F)(F)F)cc2-c2ccc3c(ccc4ccccc43)c2)cc1
The method in brief: as §1

Compound in another assay: c1cn2cc(-c3ccc4cn[nH]c4c3)nc(Nc3ccc(N4CCOCC4)cc3)c2n1 [entospletinib]
The method in brief: as §1

Regarding FMNL2 isoform 3 (UniProt Q96PY5), the values for the log2 fold change (with vorinostat; in the assay with silmitasertib; in assay [1]) were active: -0.587, inactive: -0.027 and inactive: 0.045, respectively.
Consider FANCA (UniProt O15360), for which the figures for the log2 fold change (in assay [2]; in assay [1]; in the assay with entospletinib) were inactive: 0.046, inactive: -0.249 and inactive: -0.032, respectively.
On to FBXL15 (UniProt Q9H469), for which the log2 fold change in assay [2] was inactive: -0.075; in assay [1], inactive: 0.145; with entospletinib, inactive: -0.032.
With FOSL1 (UniProt P15407), in assay [1], the log2 fold change was inactive: 0.038.
As for FBXO46 (UniProt Q6PJ61), the log2 fold change in assay [2] is inactive: -0.093; in assay [1], inactive: -0.011; with entospletinib, inactive: 0.019.
On to FGFR1OP2 isoform 2 (UniProt Q9NVK5), for which, in assay [1], the log2 fold change is inactive: 0.048.
In the case of FBXW2 (UniProt Q9UKT8), the values for the log2 fold change in assay [2] and in assay [1] were inactive: 0.005 and inactive: 0.079, respectively.
As to FNDC3A (UniProt Q9Y2H6), the log2 fold change was inactive: -0.018 with vorinostat, inactive: -0.119 with silmitasertib and inactive: -0.146 in assay [1].
For FBH1 isoform 2 (UniProt Q8NFZ0), the log2 fold change in assay [1] was inactive: 0.137.
As for FCGR2B (UniProt P31994), the log2 fold change in assay [1] was inactive: -0.003; with entospletinib it was inactive: -0.087.
Turning to FIP1L1 isoform 3 (UniProt Q6UN15), the log2 fold change is inactive: 0.048 with vorinostat, inactive: -0.002 with silmitasertib, inactive: -0.037 in assay [1] and inactive: 0.024 with entospletinib.
In the same order, the values of FGF13 isoform 3 (UniProt Q92913) are inactive: 0.106, inactive: -0.111, inactive: -0.009 and inactive: 0.022.
For FBXL19 (UniProt Q6PCT2), the log2 fold change is inactive: 0.022 with vorinostat, inactive: 0.044 with silmitasertib and inactive: 0.06 in assay [1].
Regarding FAXDC2 (UniProt Q96IV6), the log2 fold change was inactive: 0.058 with vorinostat, inactive: -0.15 in the assay with silmitasertib, inactive: 0.081 in assay [1] and inactive: 0.001 in the assay with entospletinib.
In the case of FOXJ2 (UniProt Q9P0K8), the log2 fold change in the assay with vorinostat is inactive: -0.208; with silmitasertib, inactive: -0.058; in the assay with entospletinib it was inactive: 0.033.
On to FAM83H (UniProt Q6ZRV2), for which the log2 fold change was inactive: 0.03 in assay [2] and inactive: 0.127 with entospletinib.
On to FANCC (UniProt Q00597), for which the log2 fold change is inactive: 0.098 with vorinostat, inactive: 0.206 with silmitasertib and inactive: -0.14 in assay [1].
For the target FMR1NB (UniProt Q8N0W7), the log2 fold change in assay [1] was inactive: -0.073.
On to FARP1 isoform 2 (UniProt Q9Y4F1), for which the log2 fold change in assay [2] is inactive: 0.059; in assay [1], inactive: 0.034; in the assay with entospletinib, inactive: 0.015.
